PubChem BioAssay AID652243 – Drosophila RNAi Screening Center – 2013

Purpose: 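Fly genes required for human androgen receptor driven transcription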 (primary screen)
Cell system: Drosophila S2R+ cells
Reagent: long dsRNA against Drosophila genes
Time to read-out: 72 h (48 h, then 24 h hormone)
Challenge: synthetic androgen R1881 at 10 nM for 24 h
Detection: 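Firefly light from an androgen-responsive reporter and Renilla control light per well, raw and unnormalised, for each of two replicates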
Scale: firefly reporter light: higher = more light from androgen-responsive reporter; Renilla control light: higher = more constitutive control signal (cell number, transfection)
Active means: 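Across duplicate plates, a knock-down whose log firefly/Renilla ratio shifted a set fold down or up from the GFP/LacZ control mean was a hit; the downward cut appears as both 1.5 and 3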
Calls: active = hit: reporter lowered or raised; inactive = no hit
The screen tested about 24,000 reagents; this is an unselected part of those with a known target gene and a result. In the full data, 246 (1%) got an active call. 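Plates not normalised; calls are printed but the firefly/Renilla ratio behind them is not deposited; fold cut for lowering reported inconsistently.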 Raw values are not corrected between plates. The numbers tell different reagents against one gene apart. Reagent sequences are not shown. Not given: the amount of reagent.

| gene | dsRNA no. | firefly reporter light, replicate 1 | firefly reporter light, replicate 2 | Renilla control light, replicate 1 | Renilla control light, replicate 2 | Outcome |
| --- | --- | --- | --- | --- | --- | --- |
| Gpdh2 (Glycerol-3-phosphate dehydrogenase 2) | 1 | 4.15e5 | 3.84e5 | 3.02e6 | 2.85e6 | inactive |
| LTV1 (LTV1 ribosome biogenesis factor) | 1 | 7.07e5 | 7.44e5 | 1.39e6 | 1.33e6 | inactive |
| CG5687 | 1 | 9.37e5 | 7.51e5 | 2.07e6 | 1.62e6 | inactive |
| dj-1beta | 1 | 2.18e5 | 2.33e5 | 2.31e6 | 2.87e6 | inactive |
| dj-1beta | 2 | 5.36e5 | 4.26e5 | 5.38e5 | 5.80e5 | inactive |
| ATP8A (ATPase 8A) | 1 | 1.53e5 | 2.12e5 | 4.04e5 | 4.51e5 | inactive |
| ATP8A (ATPase 8A) | 2 | 6.12e5 | 3.49e5 | 1.78e6 | 1.18e6 | inactive |
| ATP8A (ATPase 8A) | 3 | 65376 | 98060 | 7.30e5 | 7.30e5 | inactive |

Part of the list above, set out differently:
ATP8A (ATPase 8A) #1
- firefly reporter light, replicate 1: 1.53e5
- firefly reporter light, replicate 2: 2.12e5
- Renilla control light, replicate 1: 4.04e5
- Renilla control light, replicate 2: 4.51e5
- Outcome: inactive

ATP8A (ATPase 8A) #2
- firefly reporter light, replicate 1: 6.12e5
- firefly reporter light, replicate 2: 3.49e5
- Renilla control light, replicate 1: 1.78e6
- Renilla control light, replicate 2: 1.18e6
- Outcome: inactive

The listing continues:
| gene | dsRNA no. | firefly reporter light, replicate 1 | firefly reporter light, replicate 2 | Renilla control light, replicate 1 | Renilla control light, replicate 2 | Outcome |
| --- | --- | --- | --- | --- | --- | --- |
| Stacl (Stac-like) | 1 | 20330 | 12181 | 48762 | 96564 | inactive |
| Stacl (Stac-like) | 2 | 82335 | 1.23e5 | 2.13e6 | 2.13e6 | inactive |
| Stacl (Stac-like) | 3 | 83786 | 79875 | 1.64e6 | 1.64e6 | inactive |
| Stacl (Stac-like) | 4 | 43861 | 1.21e5 | 1.17e6 | 1.17e6 | inactive |
| Stacl (Stac-like) | 5 | 7.74e5 | 9.15e5 | 1.57e6 | 2.02e6 | inactive |
| Stacl (Stac-like) | 6 | 2.33e5 | 1.89e5 | 8.88e5 | 8.51e5 | inactive |
| Stacl (Stac-like) | 7 | 2.96e5 | 3.20e5 | 1.00e6 | 9.14e5 | inactive |
| Stacl (Stac-like) | 8 | – | – | – | – | inactive |
| Stacl (Stac-like) | 9 | – | – | – | – | inactive |
| sowi (solwind) | 1 | 50991 | 30571 | 8.41e5 | 8.35e5 | inactive |
| sowi (solwind) | 2 | 8.12e5 | 5.51e5 | 5.21e5 | 6.61e5 | inactive |
| Gmd (GDP-mannose 4,6-dehydratase) | 1 | 1.36e6 | 1.58e6 | 2.20e6 | 2.66e6 | inactive |
| Gmd (GDP-mannose 4,6-dehydratase) | 2 | 1.05e6 | 5.95e5 | 4.09e6 | 1.54e6 | inactive |
| Sec6 (Secretory 6) | 1 | 9.40e5 | 9.88e5 | 1.76e6 | 1.75e6 | inactive |
| CG9016 | 1 | 1.30e5 | 1.79e5 | 1.69e6 | 1.54e6 | inactive |
| CG9016 | 2 | 8.17e5 | 7.69e5 | 8.85e5 | 1.20e6 | inactive |
